For at least one compound, name, drawing or mass did not settle the structure. Some entries repeat one wording, which the source may state once for all of them. *1 amine or outer side, *2 acyl side, *3 side chain or, on linkers, in order; H or OH if unused. Where a SMILES comes first, the peptide text is derived from it. Bridges are numbered along the chain shown (N, C = ends). The star is where a group is joined. C20 diacid = O=C(O)CCCCCCCCCCCCCCCCCCC(=O)*; γGlu = O=C(O)[C@H](CCC(=O)[*:2])N[*:1]; AEEA = NCCOCCOCC(=O)O
System: food intake
Experiment: Pharmacological Assay (I) - efficacy testing on appetite, ad libitum fed rat model
Type: in vivo, Sprague Dawley (SD) rats
Conditions: 30 nmol/kg vs vehicle, ad libitum fed rats, n=5-7, 0-48 hours
Procedure, shortened: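 SD rats, 200-250 g, individually housed on reversed light/dark cycle, ad libitum food and water; single 0.01-3 mg/kg dose ip, po or sc just before lights off, 5-8 rats per dose plus vehicle group. Food intake recorded hourly for 7 h, then at 24 h and sometimes 48 h; Grubbs outliers excluded.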

Compound | food intake over a period of 48 hours
CC[C@H](C)[C@H](NC(=O)[C@@H]1CCCN1C(=O)CNC(=O)[C@H](Cc1ccccc1)NC(=O)[C@H](CC(N)=O)NC(=O)[C@H](CC(N)=O)NC(=O)[C@H](CO)NC(=O)[C@H](CO)NC(=O)[C@H](Cc1c[nH]cn1)NC(=O)[C@H](Cc1c[nH]cn1)NC(=O)[C@H](CC(C)C)NC(=O)[C@H](Cc1ccccc1)NC(=O)[C@H](CC(N)=O)NC(=O)[C@H](C)NC(=O)[C@H](CC(C)C)NC(=O)[C@H](CCCNC(=N)N)NC(=O)[C@H](CCC(N)=O)NC(=O)[C@@H](NC(=O)[C@H](C)NC(=O)[C@@H]1CSSC[C@H](NC(=O)[C@H](CCCNC(=N)N)NC(=O)[C@H](CCCNC(=N)N)NC(=O)[C@H](Cc2c[nH]cn2)NC(=O)[C@H](CCC(=O)O)NC(=O)CC[C@H](NC(=O)CCCCCCCCCCCCCCCCCCC(=O)O)C(=O)O)C(=O)N[C@@H](CC(N)=O)C(=O)N[C@@H]([C@@H](C)O)C(=O)N[C@@H](C)C(=O)N[C@@H]([C@@H](C)O)C(=O)N1)[C@@H](C)O)C(=O)N[C@@H](CC(C)C)C(=O)N1CCC[C@H]1C(=O)N1CCC[C@H]1C(=O)N[C@H](C(=O)N[C@@H](CC(N)=O)C(=O)N[C@H](C(=O)NCC(=O)N[C@@H](CO)C(=O)N[C@@H](CC(N)=O)C(=O)N[C@H](C(=O)N[C@@H](Cc1ccc(O)cc1)C(N)=O)[C@@H](C)O)C(C)C)[C@@H](C)O [Example 55, N-alpha-[(S)-4-Carboxy-4-(19-carboxynonadecanoylamino)butyryl]-Glu-His-Arg-[Arg1,His17]-pramlintide] ({C20 diacid-γGlu}-EHRRCNTATCATQRLANFLHHSSNNFGPILPPTNVGSNTY-NH2; disulfide 5-10) | effectively reducing food intake
CC[C@H](C)[C@H](NC(=O)[C@@H]1CCCN1C(=O)CNC(=O)[C@H](Cc1ccccc1)NC(=O)[C@H](CC(N)=O)NC(=O)[C@H](CC(N)=O)NC(=O)[C@H](CO)NC(=O)[C@H](CO)NC(=O)[C@H](Cc1c[nH]cn1)NC(=O)[C@H](Cc1c[nH]cn1)NC(=O)[C@H](CC(C)C)NC(=O)[C@H](Cc1ccccc1)NC(=O)[C@H](CC(N)=O)NC(=O)[C@H](C)NC(=O)[C@H](CC(C)C)NC(=O)[C@H](CCCNC(=N)N)NC(=O)[C@H](CCC(N)=O)NC(=O)[C@@H](NC(=O)[C@H](C)NC(=O)[C@@H]1CSSC[C@H](NC(=O)[C@H](Cc2c[nH]cn2)NC(=O)COCCOCCNC(=O)CC[C@H](NC(=O)CCCCCCCCCCCCCCCCCCC(=O)O)C(=O)O)C(=O)N[C@@H](CC(N)=O)C(=O)N[C@@H]([C@@H](C)O)C(=O)N[C@@H](C)C(=O)N[C@@H]([C@@H](C)O)C(=O)N1)[C@@H](C)O)C(=O)N[C@@H](CC(C)C)C(=O)N1CCC[C@H]1C(=O)N1CCC[C@H]1C(=O)N[C@H](C(=O)N[C@@H](CC(N)=O)C(=O)N[C@H](C(=O)NCC(=O)N[C@@H](CO)C(=O)N[C@@H](CC(N)=O)C(=O)N[C@H](C(=O)N[C@@H](Cc1ccc(O)cc1)C(N)=O)[C@@H](C)O)C(C)C)[C@@H](C)O [Example 37, N-alpha-[2-(2-{2-[4-(S)-Carboxy-4-(19-carboxynonadecanoylamino)butyrylamino]ethoxy}ethoxy)acetyl]-[His1,His17]-pramlintide] ({C20 diacid-γGlu-AEEA}-HCNTATCATQRLANFLHHSSNNFGPILPPTNVGSNTY-NH2; disulfide 2-7) | effectively reducing food intake
